Results deposited as PubChem BioAssay AID1259308 (NCATS, 2017)

Purpose: 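Candidate targets for better recombinant protein yield in mammalian cells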 (primary screen)
Cells: human HEK293 embryonic kidney cells stably expressing firefly luciferase (HEK-CMV-Luc2-Hygro)
Reagent: single siRNA against human genes, 0.8 pmol siRNA per well
Duration: 72 h
Measurement: 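Reporter luminescence and viable-cell signal on separate replicate plates, given as percent of non-targeting control and median/MAD z-scores, plus per-cell luciferase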
Reading the numbers: total luciferase, z-score: higher = more reporter protein produced
Active means: 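An siRNA counts as active if its total luciferase robust z-score exceeds 3; genes with two or more such siRNAs out of three were retested with fresh siRNAs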
Calls: active = raised luciferase; inactive = no rise
Shown is an unselected part of about 59,000 deposited reagents. About 1,510 of them (2.6%) were called active. 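Calls use total luciferase alone and ignore viability, so some active siRNAs may act by altering cell number.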 The numbers tell different reagents against one gene apart. Not all columns of the deposit are shown.

total luciferase, z-score, by gene knocked down and reagent
CDK3 (cyclin dependent kinase 3): #1 0.506 inactive; #2 -0.281 inactive; #3 1.57 inactive
EIF4G3 (eukaryotic translation initiation factor 4 gamma 3): #1 -0.209 inactive; #2 -1.09 inactive; #3 0.00958 inactive
PHGDH (phosphoglycerate dehydrogenase): #1 0.757 inactive; #2 -0.29 inactive; #3 -0.216 inactive
SLC35H1: #1 1.68 inactive; #2 -0.78 inactive; #3 -0.774 inactive
AMPD2 (adenosine monophosphate deaminase 2): #1 0.806 inactive; #2 0.976 inactive; #3 -1.18 inactive
SPG11 (SPG11 vesicle trafficking associated, spatacsin): #1 3.14 active; #2 -1.28 inactive; #3 -0.0575 inactive
ACR (acrosin): #1 0.0608 inactive; #2 0.483 inactive; #3 0.508 inactive
DRP2 (dystrophin related protein 2): #1 -0.734 inactive; #2 1.93 inactive; #3 0.379 inactive
MRPL13 (mitochondrial ribosomal protein L13): #1 -0.362 inactive; #2 -1.55 inactive; #3 0.258 inactive
ZNF84 (zinc finger protein 84): #1 1.11 inactive; #2 -2.41 inactive; #3 -0.802 inactive
CCDC125 (coiled-coil domain containing 125): #1 0.94 inactive; #2 -0.271 inactive; #3 1.25 inactive
TRO (trophinin): #1 2.38 inactive; #2 0.0703 inactive; #3 -0.48 inactive
SPRNP1 (shadow of prion protein pseudogene 1): #1 2.65 inactive; #2 -0.332 inactive; #3 3.29 active

Quoted from the entries so far for reference:
total luciferase, z-score, by gene knocked down and reagent
TRO (trophinin): #1 2.38 inactive; #2 0.0703 inactive; #3 -0.48 inactive
